{"source": "PubChem BioAssay AID504467", "about": "(National Center for Advancing Translational Sciences (NCATS), 2011)", "note": "Screen size: about 330,000 compounds; about 7,700 (2.3%) were called active. Inconclusive results, whose numbers are uncertain, are shown with a selection of clear calls. The call rests on the fitted dose curve; in most records, active means well fitted inhibition curve with a large enough effect; inconclusive means small, poorly fitted or top-dose-only effect, or effect the other way; inactive means flat fitted curve, though single readings scatter. A potency beside an inconclusive call is a rough fit, not a confirmed value. On the % scale 0 is the no-effect control and ±100 the full control effect; potency means the concentration at half of the fitted maximal effect.", "data": [{"experiment": "qHTS screen for small molecules that inhibit ELG1-dependent DNA repair in human embryonic kidney (HEK293T) cells expressing luciferase-tagged ELG1; further: nearly all actives have a fitted effect of over 55% in size", "details": "HEK293T ELG1-luciferase reporter, luminescence, 16 h, DNA damage induced by 5-fluorouridine; activity change, negative = inhibition: at 46.1 µM (top of the series)", "method_in_brief": "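DMSO vehicle served as the neutral condition. Each well held 2,000 cells given 5-fluorouridine plus compound; after 16 hr at 37 °C/5% CO2, ONE-Glo was added and luciferase measured 30 min later.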", "values": [{"smiles": "COCC(C)n1c(C)cc(C(=O)COc2ccc(S(=O)(=O)N3CCOCC3)cc2Cl)c1C", "note": "(stereo unspecified)", "activity change, negative = inhibition": "inactive: -25.7%"}, {"smiles": "Cc1ccc(C2=NCCn3nc4cc(C(F)(F)F)ccc4c32)cc1", "Potency": "inconclusive: 12.6 µM [activator, single point]"}, {"smiles": "O=C(CN(Cc1ccccc1)C(=O)CNS(=O)(=O)c1ccc(F)cc1)NCc1ccco1", "activity change, negative = inhibition": "inactive: 4.88%"}, {"smiles": "CCc1noc(C)c1C(=O)N(CC)CC(=O)NCc1ccc(Cl)cc1", "activity change, negative = inhibition": "inactive: 12.9%"}, {"smiles": "CCN(C(=O)C1CCN(c2nc(-c3ccc(OC)cc3)no2)CC1)c1ccccc1", "Potency": "inconclusive: 10.3 µM [inhibitor, partial curve]"}, {"smiles": "Cc1ccc(S(=O)(=O)N2CCCC(c3nnc4n3-c3ccccc3SC4)C2)cc1", "note": "(stereo unspecified)", "Potency": "inconclusive: 29.1 µM [inhibitor, single point]"}, {"smiles": "CN(C)S(=O)(=O)N1CCC(n2nccc2NC(=O)CCCc2ccccc2)CC1", "activity change, negative = inhibition": "inactive: 3.77%"}, {"smiles": "CCCCNC(=O)Nc1nnc(-c2ccccc2)o1", "Potency": "inconclusive: 25.9 µM [activator, single point]"}, {"smiles": "CC(C)CCNC(=O)[C@H](Cc1ccccc1)N1Cc2ccccc2C1=O", "activity change, negative = inhibition": "inactive: 2.54%"}, {"smiles": "Cc1cc2nc(-c3ccccn3)c(-c3ccccn3)nc2cc1C", "Potency": "inconclusive: 20.6 µM [activator, single point]"}, {"smiles": "COc1cc(OC)cc(C(=O)NCc2cc(C)nc3ccccc23)c1", "Potency": "inconclusive: 10.3 µM [inhibitor, partial curve, poor fit]"}, {"smiles": "Nc1nc2nccc(-c3cccnc3)n2n1", "Potency": "inconclusive: 18.3 µM [activator, partial curve]"}, {"smiles": "O=S(=O)(/C=C/c1ccccc1)Oc1ccccc1", "activity change, negative = inhibition": "inactive: -5.44%"}, {"smiles": "Cc1ccc(-c2cc(-c3ccc(C)o3)nc(N)c2C#N)cc1", "Potency": "inconclusive: 18.4 µM [inhibitor, single point]"}, {"smiles": "Cc1ccc([N+](=O)[O-])cc1NC(=S)NC(=O)c1cccs1", "activity change, negative = inhibition": "inactive: 12.9%"}, {"smiles": "Cc1ccccc1NC(=O)CSc1nnc(-c2ccoc2C)n1CCc1ccccc1", "activity change, negative = inhibition": "inactive: -21.3%"}, {"smiles": "CN(C(=O)COC(=O)CN1C(=O)c2cccc([N+](=O)[O-])c2C1=O)c1ccccc1", "activity change, negative = inhibition": "inactive: 7.76%"}, {"smiles": "O=S(=O)(Nc1ccc2c(c1)OCCO2)c1cccs1", "Potency": "inconclusive: 16.4 µM [activator, partial curve]"}, {"smiles": "CCCCN(C)CCCNC(=O)C1(O)c2ccccc2NC(=O)N1c1ccc(Cl)cc1", "note": "(stereo unspecified)", "activity change, negative = inhibition": "inactive: -9.29%"}, {"smiles": "Cc1ccccc1N(Cc1cc(=O)[nH]c2ccccc12)C(=O)C(C)C", "activity change, negative = inhibition": "inactive: 8.06%"}, {"smiles": "CC1CN(Cc2c(O)ccc3c(=O)c(-c4ccccc4)coc23)CC(C)O1", "note": "(stereo unspecified)", "Potency": "inconclusive: 32.6 µM [activator, partial curve, poor fit]"}, {"smiles": "CCOC(=O)c1cnc2c(C)cccc2c1Nc1cccc(C(=O)O)c1", "activity change, negative = inhibition": "inactive: 7.35%"}, {"smiles": "Cc1cc(C)nc(SCc2nc(N)nc(-c3ccccc3O)n2)n1", "Potency": "inconclusive: 5.17 µM [inhibitor, single point]"}, {"smiles": "CN(/N=C/c1ccc(Br)o1)C1=NS(=O)(=O)c2ccccc21", "activity change, negative = inhibition": "inactive: -8.28%"}, {"smiles": "O=C(/C=C/c1ccccc1)NC(N1CCOCC1)C(Cl)(Cl)Cl", "note": "(stereo unspecified)", "Potency": "inconclusive: 29.1 µM [inhibitor, single point]"}, {"smiles": "CCN(CC)CCNC(=O)c1ccc(-n2c(C)cc3c2CCCC3=O)cc1", "Potency": "inconclusive: 20.6 µM [activator, single point]"}, {"smiles": "Cc1cccn2c(=O)c(/C=C3\\SC(=S)NC3=O)c(NCCCN3CCOCC3)nc12", "activity change, negative = inhibition": "inactive: 1.24%"}, {"smiles": "COc1cccc(/C=C/C(=O)OCC(=O)c2c[nH]c3ccccc23)c1", "Potency": "inconclusive: 25.9 µM [inhibitor, single point]"}, {"smiles": "Cc1cc(C)nc(S/C=C/C(=O)c2ccccc2)n1", "Potency": "inconclusive: 23.1 µM [activator, partial curve]"}, {"smiles": "COc1ccc(OC)c(NC(=O)C2CCCN(S(=O)(=O)c3c(C)noc3C)C2)c1", "note": "(stereo unspecified)", "Potency": "inconclusive: 23.1 µM [inhibitor, single point]"}, {"smiles": "Cc1oc(-c2ccc(Cl)cc2)nc1CN1CCCC(C(=O)NCCCN2CCCC2=O)C1", "note": "(stereo unspecified)", "Potency": "inconclusive: 14.6 µM [inhibitor, partial curve]"}, {"smiles": "COc1ccc2[nH]c(C(=O)N3CCC(Cc4ccccc4)CC3)cc2c1", "activity change, negative = inhibition": "inactive: -5.39%"}, {"smiles": "O=C(/C=C/c1ccc(Cl)cc1)NC(=S)Nc1ccccc1C(=O)O", "activity change, negative = inhibition": "inactive: -2.51%"}, {"smiles": "CCOC(=O)c1c(CSC(=N)N)n(-c2ccc(C)cc2)c2cc(Br)c(OC(C)=O)cc12", "Potency": "inconclusive: 25.9 µM [inhibitor, single point]"}, {"smiles": "CCc1sc(C(=O)N2CCN(C(=O)c3ccccc3)CC2)cc1C", "activity change, negative = inhibition": "inactive: -1.22%"}, {"smiles": "Cc1c(NC(=O)c2cc3nc(-c4ccc(Br)cc4)cc(C(F)(F)F)n3n2)c(=O)n(-c2ccccc2)n1C", "Potency": "inconclusive: 23.1 µM [inhibitor, single point]"}, {"smiles": "CN1CCc2nc(SCC(=O)Nc3ccc(OC(F)(F)F)cc3)c(C#N)c(-c3cccs3)c2C1", "Potency": "inconclusive: 25.9 µM [inhibitor, partial curve, poor fit]"}, {"smiles": "Cc1ccccc1C(=O)N1CCN(c2ccc([N+](=O)[O-])c(NCc3cccnc3)c2)CC1", "Potency": "inconclusive: 18.4 µM [inhibitor, single point]"}, {"smiles": "CC(=O)c1sc(NC(=O)C2CSC3(C)CCC(=O)N23)nc1-c1ccccc1", "note": "(stereo unspecified)", "Potency": "inconclusive: 9.2 µM [inhibitor, single point]"}, {"smiles": "CC(C)CC(OC(=O)c1nsc(Cl)c1Cl)C(=O)NCC1CCCO1", "note": "(stereo unspecified)", "activity change, negative = inhibition": "inactive: 11%"}, {"smiles": "Cc1ccc(C2=NN(C)c3nc4ccccc4n3C2)cc1", "Potency": "inconclusive: 18.4 µM [inhibitor, single point]"}, {"smiles": "CN(Cc1cccs1)c1nc(-c2cccnc2)nc2ccccc12", "Potency": "inconclusive: 18.3 µM [inhibitor, single point]"}, {"smiles": "COc1ccc(OC)c(-c2cc(C3CCN(c4cc(Cl)nc(N)n4)CC3)[nH]n2)c1", "Potency": "inconclusive: 16.4 µM [inhibitor, single point]"}, {"smiles": "COc1ccc(C(C(=O)NC(C)(C)C)N(C(=O)CCC(=O)Nc2cc(C)on2)c2ccccc2F)cc1", "note": "(stereo unspecified)", "activity change, negative = inhibition": "inactive: -3.55%"}, {"smiles": "O=C(CC1CCCC1)Nc1cc(C(F)(F)F)ccc1-n1cncn1", "activity change, negative = inhibition": "inactive: -6.6%"}, {"smiles": "COc1ccc(-c2csc(NC(=O)COC(=O)Cc3ccc(Cl)cc3Cl)n2)cc1", "Potency": "inconclusive: 14.6 µM [activator, partial curve]"}, {"smiles": "CC(Oc1ccccc1)C(=O)N=Nc1c(O)[nH]c2ccc(Br)cc12", "note": "(stereo unspecified)", "Potency": "inconclusive: 10.3 µM [inhibitor, partial curve, poor fit]"}, {"smiles": "Cc1ccc(C(=O)N2CCc3ccccc32)o1", "Potency": "inconclusive: 4.61 µM [activator, partial curve]"}, {"smiles": "CC(C)(C)c1ccc(-c2noc(CCC(=O)NCc3ccco3)n2)cc1", "activity change, negative = inhibition": "inactive: 1.46%"}, {"smiles": "Cc1cccc(NC(=O)C(c2cccc([N+](=O)[O-])c2)N2CCCCC2)c1", "note": "(stereo unspecified)", "activity change, negative = inhibition": "inactive: -3.36%"}, {"smiles": "O=C(CN1C2=NCCN2c2ccccc21)c1ccc(Br)s1", "activity change, negative = inhibition": "inactive: -20.8%"}, {"smiles": "Cc1nn2c(=O)c3c4c(sc3nc2n1-c1ccccc1)COC(C)(C)C4", "Potency": "inconclusive: 14.6 µM [inhibitor, single point]"}, {"smiles": "O=C(Nc1ccc(C(=O)O)cc1)/C(=C\\C=C\\c1ccccc1)NC(=O)c1ccccc1Cl", "activity change, negative = inhibition": "inactive: -3.93%"}, {"smiles": "O=[N+]([O-])c1ccc(O)c2ncccc12", "Potency": "inconclusive: 5.8 µM [inhibitor, full curve]"}, {"smiles": "COc1ccc(Nc2cc(NCCCO)c([N+](=O)[O-])c3nonc23)cc1", "activity change, negative = inhibition": "inactive: 0%"}, {"smiles": "NS(=O)(=O)c1ccc(NC(=S)NC(=O)C2CCCC2)cc1", "activity change, negative = inhibition": "inactive: 0.15%"}, {"smiles": "CC(C)c1ccc(S(=O)(=O)N2CCN(CCC(=O)Nc3ccc(N(C)C)cc3)CC2)cc1", "Potency": "inconclusive: 20 µM [inhibitor, single point]"}, {"smiles": "Cc1cc(C)nc(SCC(=O)Nc2ccc(N3CCOCC3)c(Cl)c2)n1", "Potency": "inconclusive: 5.17 µM [inhibitor, partial curve, poor fit]"}, {"smiles": "CCc1ccc(OCC(=O)NCCOc2ccccc2)cc1", "Potency": "inconclusive: 32.6 µM [activator, partial curve, poor fit]"}, {"smiles": "Cc1ccc(-n2cccc2/C=N/n2cnnc2)cc1Cl", "Potency": "inconclusive: 13 µM [inhibitor, partial curve]"}, {"smiles": "N#C/C(=C\\c1cccs1)C(=O)Nc1nccs1", "Potency": "inconclusive: 13 µM [activator, partial curve]"}, {"smiles": "O=C(NCCc1nnc2ccc(NCc3ccccc3Cl)nn12)c1ccccc1", "Potency": "inconclusive: 29.1 µM [activator, single point]"}, {"smiles": "CN1CCN(S(=O)(=O)NC[C@H]2O[C@@H](n3cnc4c(N)ncnc43)[C@H](O)[C@@H]2O)CC1", "activity change, negative = inhibition": "inactive: 19.7%"}, {"smiles": "Cc1cccc(-n2c(O)c(C=Nc3cccc(O)c3)c3ccccc3c2=O)n1", "Potency": "inconclusive: 18.3 µM [inhibitor, single point]"}, {"smiles": "COc1ccc2c(c1)C(C)CC(C)(C)N2C(=O)Nc1ccccc1", "note": "(stereo unspecified)", "Potency": "inconclusive: 1.83 µM [activator, partial curve, poor fit]"}, {"smiles": "NC(=O)Nc1ccc(Nc2ccccc2)cc1", "Potency": "inconclusive: 20.6 µM [activator, partial curve, poor fit]"}, {"smiles": "COC(=O)Nc1nc2ccc(-c3n[nH]c(=O)c4ccccc34)cc2[nH]1", "Potency": "inconclusive: 2.59 µM [inhibitor, partial curve, poor fit]"}, {"smiles": "O=C(Nc1c(C(=O)Nc2ccccc2)cnn1-c1ccccc1)c1ccco1", "Potency": "inconclusive: 23.1 µM [inhibitor, single point]"}, {"smiles": "CCn1c(SCc2ccc(Cl)c(Cl)c2)nnc1C(C)NC(=O)c1ccc(OC)cc1", "note": "(stereo unspecified)", "Potency": "inconclusive: 32.6 µM [inhibitor, single point]"}, {"smiles": "Cc1ccc(C(=O)/C=C/c2c(C)nn(-c3ccccc3)c2Cl)cc1", "Potency": "inconclusive: 18.4 µM [activator, partial curve]"}, {"smiles": "Cc1cccc(NC(=S)Nc2ccc3cn[nH]c3c2)c1", "Potency": "inconclusive: 20.6 µM [activator, partial curve, poor fit]"}]}]}
